Shown are results outside the selection of hits, which stands elsewhere. Records with an inconclusive call do not appear. Calls of active or inactive are those of the source. How the calls were made is not given here.
Tests used:
Experiment in all cases: Primary Screen for Target Class Profiling of Small Molecule Inhibitors of Methyltransferases
[1] = molecular target: Catechol O-methyltransferase (Homo sapiens) (UniProt P21964); conditions: purified enzyme, MTase-Glo SAH luminescence; at 40 µM; stronger effect = lower value
Source text: (§1) PI: Matthew D. Hall Ph.D. and Quinlin M. Hanson Ph.D.
(§2) National Center for Advancing Translational Sciences (NCATS)
(§3) National Institute of Health (NIH), Rockville, MD
(§4) Target class profiling (TCP) is a chemical biology approach amenable to investigating understudied biological targets. TCP is achieved by developing a generalizable assay platform and applying it to screen a curated set of compound libraries against representative members of a target class. Small molecule methyltransferases (SMMTase) are a subclass of methyltransferase that act on metabolites to modulate signaling pathways, metabolize xenobiotics, or balance the available methyl pool. We screened four curated libraries totaling 27,574 unique compounds against the SMMTases nicotinamide N-methyltransferase (NNMT), phenylethanolamine N-methyltransferase (PNMT), histamine N-methyltransferase (HNMT), glycine N-methyltransferase (GNMT), catechol O-methyltransferase (COMT), and guanidinoacetate N-methyltransferase (GAMT). The data generated by this TCP can be leveraged for informed tool molecule development. For example, in the associated publication we identified a chemotype of HNMT-selective inhibitors. Additionally, we identified a putative SMMTase-selective inhibitor with potential as a tool molecule for studying broader methyltransferase biology.
(§5) High-through put screening assays were developed at the National Center for Advancing Translational Science (NCATS) for the enzymes NNMT, PNMT, HNMT, GNMT, COMT, and GAMT. Enzymatic activity was measured as a function of SAM cofactor conversion using the MTase Glo kit (Promega) for all enzymes. All assays were performed in 1536-well format with substrates and SAM concentrations at KM values. Enzyme concentration and assay timing were optimized for 10-20% SAM conversion. Initial screening of 27,574 compounds was done as single-point assays using the highest compound concentration (40 uM). […] These compounds were replated in 11-point dose response and assayed against NNMT, PNMT, HNMT, GNMT, COMT, GAMT, and a counter-assay. The IC50 and efficacy (maximal response) values were determined for each dose-response curve. These values are also accounted for in the area under the curve (AUC) values.
(§6) PROTOCOL TABLE (as described by Inglese J, Shamu CE and Guy RK. 2007)
(§7) SEQUENCE No. (e.g., 1, 2, 3, etc.); […] (e.g., Cells, Incubation, Reagent, etc.); VALUE; DESCRIPTION.
(§8) 1; Reagent; 2 uL; SMMTase Enzyme (2x) in reaction buffer, columns 1- 48.
(§9) 2; Reagent; 1 uL; SAM (4x) in reaction buffer, columns 1-48.
(§10) 3; Controls; 23 nL; DMSO in column 4; sinefungin in DMSO (0 uM - 40 uM) in 7-point 1:2 dilution series (n = 2) in column 2.
(§11) 4; Compounds; 23 nL; Columns 5-48.
(§12) 5; Reagent; 1 uL; Substrate (4x) in reaction buffer, columns 2-48.
(§13) 6; Time; 20-30 min; Incubation.
(§14) 7; Reagent; 1 uL; MTase-Glo reagent (5X), columns 1-48.
(§15) 8; Time; 30 min; Incubation.
(§16) 9; Reagent; 5 uL; MTase-Glo Detection reagent, columns 1-48.
(§17) 10; Time; 30 min; Incubation, luminescence evolution.
(§18) 11; Detection; Luminescence; ViewLux uHTS Microplate Imager (PerkinElmer).
(§19) NOTES (numbers refer to Sequence numbers above)
(§20) 1, 2, 5. White Medium Binding Greiner 1536-well plates (Cat #789175-F, Greiner Bio-One, Monroe, NC); Reaction buffer: 50 mM Tris, pH 8.0, 3 mM MgCl2, 1 mM EDTA, 50 mM NaCl, 1 mM DTT, and 0.1 mg/mL BSA. Evaporation was prevented by covering assay plates with metal lids containing holes to allow gas diffusion.
(§21) 1. Six SMMTase were profiled: HNMT, GNMT, PNMT, COMT, NNMT, GAMT
(§22) 5. The corresponding substrate was used for each enzyme: HNMT - 5.3 uM Histamine; GNMT - >500 uM Glycine; PNMT - 16.2 uM Norephinephrine; COMT - 13.7 uM Norephinephrine; NNMT - 3.8 uM Nicotinamide; GAMT - 2.5 uM Guanidinoacetate.6, 8, 10. Room temperature
(§23) 6. Final reaction conditions: 10 nM COMT, 5 uM SAM, 15 uM norepinephrine, 50 mM Tris, pH 8.0, 3 mM MgCl2, 1 mM EDTA, 50 mM NaCl, 1 mM DTT, and 0.1 mg/mL BSA; refer to tables 2 and S1 for specific timing.
8. […]

[2] = molecular target: Glycine N-methyltransferase (Homo sapiens) (UniProt Q14749); conditions: purified enzyme, MTase-Glo SAH luminescence; measured here: GNMT inhibition; at 40 µM; stronger effect = lower value
Source text: as §1, §2, §3, §4, §5, §6, §7, §8, §9, §10, §11, §12, §13, §14, §15, §16, §17, §18, §19, §20, §21, §22, §23
8. […]

[3] = molecular target: Guanidinoacetate N-methyltransferase (Homo sapiens) (UniProt Q14353); conditions: purified enzyme, MTase-Glo SAH luminescence; measured here: GAMT inhibition; at 40 µM; stronger effect = lower value
Source text: as §1, §2, §3, §4, §5, §6, §7, §8, §9, §10, §11, §12, §13, §14, §15, §16, §17, §18, §19, §20, §21, §22, §23
8. […]

[4] = molecular target: Histamine N-methyltransferase (Homo sapiens) (UniProt P50135); conditions: purified enzyme, MTase-Glo SAH luminescence; measured here: HNMT inhibition; at 40 µM; stronger effect = lower value
Source text: as §1, §2, §3, §4, §5, §6, §7, §8, §9, §10, §11, §12, §13, §14, §15, §16, §17, §18, §19, §20, §21, §22, §23
8. […]

[5] = molecular target: Nicotinamide N-methyltransferase (Homo sapiens) (UniProt P40261); conditions: purified enzyme, MTase-Glo SAH luminescence; measured here: NNMT inhibition; at 40 µM; stronger effect = lower value
Source text: as §1, §2, §3, §4, §5, §6, §7, §8, §9, §10, §11, §12, §13, §14, §15, §16, §17, §18, §19, §20, §21, §22, §23
8. […]

[6] = molecular target: Phenylethanolamine N-methyltransferase (Homo sapiens) (UniProt P11086); conditions: purified enzyme, MTase-Glo SAH luminescence; measured here: PNMT inhibition; at 40 µM; stronger effect = lower value
Source text: as §1, §2, §3, §4, §5, §6, §7, §8, §9, §10, §11, §12, §13, §14, §15, §16, §17, §18, §19, §20, §21, §22, §23
8. […]
On the % scale 0 is the no-effect control and ±100 the full control effect.

Row | Structure (SMILES) | activity change, negative = inhibition [1] | activity change, negative = inhibition [2] [%] | activity change, negative = inhibition [3] [%] | activity change, negative = inhibition [4] [%] | activity change, negative = inhibition [5] [%] | activity change, negative = inhibition [6] [%]
1 | O=C(Nc1cccc(C(F)(F)F)c1)c1ccccc1NCc1ccncc1 | inactive: -0.028% | 5.97 | -2.48 | 1.15 | -17.7 | -3.66
2 | N#Cc1ccc2c(c1)CCN(CCC1CCC(NC(=O)c3ccnc4ccccc34)CC1)C2 (stereo not drawn) | inactive: 2.42% | -1.42 | 2.04 | 3.95 | -24.4 | -3.51
3 | COc1ccc(-c2c(C)c(C(=O)NN3CCCCC3)nn2-c2ccc(Cl)cc2Cl)cc1 | inactive: -1.9% | -3.88 | -1.92 | 3 | -27.5 | -8.88

— PubChem BioAssay AID1745853 (National Center for Advancing Translational Sciences (NCATS), 2022)
